Measurements: publication PMC5127561

Chains of the proteins cited; added tags and fusions are not shown. Lines headed by an entry give the natural chain unless they say otherwise; changes in a name come on top.
UniProt P42283: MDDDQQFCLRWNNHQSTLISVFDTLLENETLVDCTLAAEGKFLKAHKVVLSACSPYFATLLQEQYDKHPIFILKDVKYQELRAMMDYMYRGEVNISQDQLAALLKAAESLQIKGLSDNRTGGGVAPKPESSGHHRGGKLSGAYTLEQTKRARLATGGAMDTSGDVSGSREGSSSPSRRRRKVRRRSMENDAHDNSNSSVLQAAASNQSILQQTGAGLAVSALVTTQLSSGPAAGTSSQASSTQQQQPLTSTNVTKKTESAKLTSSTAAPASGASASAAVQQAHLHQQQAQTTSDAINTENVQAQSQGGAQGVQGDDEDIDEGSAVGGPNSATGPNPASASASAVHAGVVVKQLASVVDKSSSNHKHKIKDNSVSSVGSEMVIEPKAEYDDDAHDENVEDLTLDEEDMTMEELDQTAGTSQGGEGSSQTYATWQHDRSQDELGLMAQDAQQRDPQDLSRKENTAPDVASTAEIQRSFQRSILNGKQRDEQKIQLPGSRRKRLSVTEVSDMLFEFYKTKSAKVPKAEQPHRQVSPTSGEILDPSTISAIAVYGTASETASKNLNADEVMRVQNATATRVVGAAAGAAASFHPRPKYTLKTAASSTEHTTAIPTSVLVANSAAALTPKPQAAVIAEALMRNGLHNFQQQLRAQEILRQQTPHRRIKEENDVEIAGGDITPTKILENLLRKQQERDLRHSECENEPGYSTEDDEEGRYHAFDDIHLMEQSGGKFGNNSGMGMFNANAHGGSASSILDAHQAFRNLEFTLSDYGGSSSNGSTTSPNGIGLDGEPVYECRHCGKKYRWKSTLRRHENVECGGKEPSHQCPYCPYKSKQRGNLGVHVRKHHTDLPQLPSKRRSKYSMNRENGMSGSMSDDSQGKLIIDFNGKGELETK

Assays:
[1] = molecular target: Rib BTB domain (Drosophila melanogaster) (UniProt Q7KF43); assay: two-hybrid; Matchmaker Gold system; pGADT7 (AD) fusions in Y2H-Gold mated with pGBKT7 (BD) fusions in Y187; diploids streaked on SD-Leu-Trp-His-Ade plates with X-alpha-Gal and Aureobasidin A; four reporters
[2] = molecular target: Lola BTB domain (Drosophila melanogaster) (UniProt P42283); assay: as above

binding [1]	binding [2]	Substance
binds	–	Lola BTB domain (from UniProt P42283) (domain or fragment)
–	binds	Rib BTB domain (from UniProt Q7KF43) (domain or fragment)

These are yes or no findings as the source states them, for the method shown. Binding calls can cover weak binding; strength is not graded here.
